Laboratory results from PubChem BioAssay AID1347076 (National Center for Advancing Translational Sciences (NCATS), 2019).
The campaign covered roughly 400,000 compounds. About 13,000 (3.2%) were called active. The inconclusive results got no clear call from the source; some entries with a clear call stand among them for comparison. Calls follow the shape of the dose curve; as a rule, active = well fitted cell-killing curve with a large enough effect; inconclusive = small, poorly fitted or top-dose-only effect, or effect the other way; inactive = flat fitted curve, though single readings scatter. Potencies of inconclusive entries are doubtful fits and often do not repeat.

assay: qHTS assay for MDR1-selective chemotherapeutics: Primary screen using the drug-selected MDR subline cells KB-V1; settings: KB-V1 MDR cells viability, CellTiter-Glo, 72 h; activity change, negative = cytotoxicity: at 46.1 µM (top of the series); also: nearly all actives have a fitted effect of over 60% in size
Procedure, shortened: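 KB-V1, DMEM (no phenol red) + 10% FBS; cpd pin-transferred, titration series; 72 h, 37 degrees C; CellTiter-Glo, luminescence. Data normalized, curve-fit.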
% is scaled to controls: 0 for no effect and ±100 for the full control effect; potency is read from the fitted curve at half-maximal effect.

SMILES	Potency	activity change, negative = cytotoxicity
O=C(CCc1ccccc1)NCCc1cccs1	inconclusive: 29.1 µM [rising, single point]	–
Cc1cc2nc(-c3ccco3)c(Cc3ccccc3C(F)(F)F)n2c(C)c1Br	inconclusive: 18.4 µM [cytotoxic, partial curve, poor fit]	–
O=C(Cc1c[nH]c2ccccc12)NCc1ccc(Cl)cc1	–	inactive: 11.9%
COc1ccc(NC(=O)CSCc2ccccc2C)cc1	inconclusive: 20.6 µM [cytotoxic, single point]	–
COc1ccc(C2=CC(c3c(C)nn(-c4ccccc4)c3Cl)n3nnnc3N2)cc1OC (stereo not drawn)	active: 20.6 µM	–
O=C(OCC(=O)N(Cc1ccccc1)Cc1ccccc1)c1ccccc1NCCO	inconclusive: 29.1 µM [cytotoxic, single point]	–
Cc1cc(C)n2cc(CSc3nnnn3C)nc2n1	inconclusive: 16.4 µM [rising, single point]	–
Cc1ccc(C)c(S(=O)(=O)c2nnn3c2nc(NC2CCCC2)c2sccc23)c1	inconclusive: 6.51 µM [cytotoxic, full curve]	–
CCOc1ncccc1C(=O)Nc1ccc(Cl)cc1	inconclusive: 20.6 µM [cytotoxic, single point]	–
CSc1nnc(NC(=O)c2cc(=O)c3cc(C)c(C)cc3o2)s1	inconclusive: 18.4 µM [rising, single point]	–
CCn1c(COc2ccc(C(C)C)cc2)nnc1SCC(=O)Nc1nccs1	inconclusive: 8.2 µM [cytotoxic, partial curve]	–
O=C(NCc1ccncc1)/C(=N/O)c1ccccc1	–	inactive: -6.23%
CC1=CC(C)C2(COC(c3ccc[n+](C)c3)OC2)C(C)C1 (stereo not drawn)	–	inactive: 19.1%
CCOC(=O)C(NCc1ccco1)(NC(=O)c1ccccc1)C(F)(F)F (stereo not drawn)	inconclusive: 18.4 µM [cytotoxic, single point]	–
COc1ccc(CNC(=O)C(CC(C)C)NS(=O)(=O)c2ccc3c(c2)oc(=O)n3C)cc1 (stereo not drawn)	–	inactive: 0%
CCCNS(=O)(=O)c1ccc(OCC(=O)NCc2ccco2)cc1	inconclusive: 13 µM [cytotoxic, partial curve]	–
O=C(Nc1ccc(F)c(F)c1)c1cc(S(=O)(=O)N2CCN(c3ccccn3)CC2)ccc1F	active: 10.3 µM	–
CCCCCCN[C@H]1CCC2C3CC=C4C[C@@H](O)CC[C@]4(C)C3CC[C@@]21C (stereo partly drawn)	inconclusive: 32.6 µM [cytotoxic, single point]	–
COc1ccc(/C=C2\SC(=S)N(CCC(=O)NCCCn3ccnc3)C2=O)cc1	–	inactive: 16.2%
Cc1cccc(C)c1NC(=O)CSc1nnc(C)n1CC1CCCO1 (stereo not drawn)	–	inactive: -0.231%
Cc1cccc(C)c1NC(=O)C(=O)NCC(c1ccc2c(c1)OCO2)N1CCN(C)CC1 (stereo not drawn)	–	inactive: 7%
[N-]=[N+]=NC1CC(CO)OC1n1ccc(=O)[nH]c1=O (stereo not drawn)	–	inactive: 2.69%
Cc1cc(C)c(-n2nnnc2SCC(=O)c2cccs2)c(C)c1	inconclusive: 29.1 µM [cytotoxic, single point]	–
Cc1ccc(-n2[nH]c(C)c(C=NCc3ccncc3)c2=O)cc1	inconclusive: 8.2 µM [cytotoxic, partial curve, poor fit]	–

SMILES	Potency	activity change, negative = cytotoxicity
CC1OC2(C)OC(=N)C1(C#N)C(C#N)(C#N)C2c1ccccc1 (stereo not drawn)	–	inactive: -18%
CCOc1cc(CNc2ccc(N3CCOCC3)cc2)cc(Br)c1OCC	inconclusive: 9.2 µM [cytotoxic, partial curve, poor fit]	–
CCOC(=O)c1ccc(NC(=O)Nc2ccc(F)cc2)cc1	inconclusive: 14.1 µM [cytotoxic, partial curve]	–
CCNC(=S)N/N=C/c1cccs1	–	inactive: 0.412%
CC(C)Cc1nnc(NC(=O)CSc2nc(=O)cc(N)n2-c2ccccc2)s1	inconclusive: 18.4 µM [rising, single point]	–
Cc1cc(C)nc(N2CCC(C(=O)Nc3ccc4c(c3)OCO4)CC2)n1	inconclusive: 6.51 µM [cytotoxic, partial curve, poor fit]	–
CC(C)COc1cc(=O)[nH]c(SCC(C)C)n1	inconclusive: 29.1 µM [cytotoxic, single point]	–
Cc1cccc(NC(=O)c2ccc3oc(=O)c(S(=O)(=O)c4ccc(F)cc4)cc3c2)c1C	–	inactive: 1.78%
Cc1nc2sc(C(c3ccccc3)N3CCOCC3)c(O)n2n1 (stereo not drawn)	–	inactive: 17.4%
CC(=O)c1ccc(N=Nc2c(C)[nH][nH]c2=O)cc1	inconclusive: 29.1 µM [cytotoxic, single point]	–
Clc1nc(NCCc2ccccc2)c2cn[nH]c2n1	active: 1.16 µM	–
CCc1ccccc1N(C)C(=O)c1nn(-c2ccc(OC)cc2)c(=O)c2c1c1ccccc1n2C	–	inactive: 3.85%
Cc1c(Cl)cccc1NC(=S)NCc1ccccc1Cl	inconclusive: 20.6 µM [cytotoxic, single point]	–
CCOc1ccc(S(=O)(=O)c2cc3cccc(OCC)c3oc2=O)cc1	–	inactive: 1.21%
CCCC(C)C(=O)OCC(=O)Nc1c(Br)cc(C)cc1Br (stereo not drawn)	inconclusive: 9.2 µM [rising, partial curve, poor fit]	–
COC(=O)C1=CN(Cc2ccc(OC)c(OC)c2)C=C(C(=O)OC)C1c1ccc(O)cc1	inconclusive: 32.6 µM [cytotoxic, single point]	–
CCC(C)[C@H](NC(=O)NCc1ccc(Cl)cc1)C(=O)OC (stereo partly drawn)	active: 20.6 µM	–
CCc1ccc(S(=O)(=O)Nc2c(C)nc3nc[nH]n3c2=O)cc1	–	inactive: -7.68%
CCCCn1c(SCC(=O)c2ccccc2)nc2sc3c(c2c1=O)CCCC3	–	inactive: 0%
COc1ccc(C(C(=O)NC2CCCC2)N(C(=O)c2ccco2)c2ccc(OC)c(OC)c2)cc1 (stereo not drawn)	–	inactive: 3.34%
CCC(C(=O)O)N1C(=O)/C(=C/C(C)=C/c2ccccc2)SC1=S (stereo not drawn)	–	inactive: 12.9%
Cc1ccc(S(=O)(=O)Nc2ccc(-c3ccc(N4CCCCCC4)nn3)cc2)c(C)c1	inconclusive: 29.1 µM [cytotoxic, single point]	–
CCOc1ccccc1CNCc1c(C(=O)O)n(Cc2ccccc2)c2cc(OC)ccc12	inconclusive: 5.8 µM [rising, full curve, poor fit]	–
CC1CCC(NC(=O)c2ccc3c(c2)N(Cc2ccccc2F)C(=O)c2ccccc2S3(=O)=O)CC1 (stereo not drawn)	–	inactive: -8.26%

Sorted by SMILES length (largest number first): some entries from above.
SMILES	Potency	activity change, negative = cytotoxicity
COc1ccc(C(C(=O)NC2CCCC2)N(C(=O)c2ccco2)c2ccc(OC)c(OC)c2)cc1 (stereo not drawn)	–	inactive: 3.34%
CC1OC2(C)OC(=N)C1(C#N)C(C#N)(C#N)C2c1ccccc1 (stereo not drawn)	–	inactive: -18%
CCC(C)[C@H](NC(=O)NCc1ccc(Cl)cc1)C(=O)OC (stereo partly drawn)	active: 20.6 µM	–
